# Experimental data as given in PubChem BioAssay AID1671190 (National Center for Advancing Translational Sciences (NCATS), 2021).
# By UniProt entry, the sequences of proteins in these tests, tags left out.
# UniProt P18054, whole entry, looked up: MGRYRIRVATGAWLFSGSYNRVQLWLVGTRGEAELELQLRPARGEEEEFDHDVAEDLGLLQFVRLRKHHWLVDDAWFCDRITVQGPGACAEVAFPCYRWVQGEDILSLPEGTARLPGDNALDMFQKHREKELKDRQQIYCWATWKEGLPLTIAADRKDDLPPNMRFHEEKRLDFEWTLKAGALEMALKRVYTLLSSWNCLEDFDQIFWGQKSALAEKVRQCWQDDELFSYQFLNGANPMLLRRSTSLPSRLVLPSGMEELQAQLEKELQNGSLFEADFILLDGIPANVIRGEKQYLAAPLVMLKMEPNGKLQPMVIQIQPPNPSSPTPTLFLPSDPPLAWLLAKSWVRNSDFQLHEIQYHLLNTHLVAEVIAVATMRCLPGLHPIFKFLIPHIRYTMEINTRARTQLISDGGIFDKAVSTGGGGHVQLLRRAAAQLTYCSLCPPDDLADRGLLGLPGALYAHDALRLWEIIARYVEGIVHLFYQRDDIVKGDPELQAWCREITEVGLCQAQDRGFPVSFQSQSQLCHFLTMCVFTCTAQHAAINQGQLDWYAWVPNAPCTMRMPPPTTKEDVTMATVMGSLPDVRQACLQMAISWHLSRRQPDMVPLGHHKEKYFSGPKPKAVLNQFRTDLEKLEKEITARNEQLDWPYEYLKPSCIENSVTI
# Screen size: about 580,000 compounds; about 6,100 (1.1%) were called active. The shares of active, inactive and inconclusive entries below differ from those in the screen. Calls follow the shape of the dose curve; as a rule, active = well fitted inhibition curve with a large enough effect; inconclusive = small, poorly fitted or top-dose-only effect, or another doubt; inactive = no such curve, though single readings can be large or run the other way. Potencies beside an inconclusive call are fits to weak or partial responses and may not hold up.
# Target: Polyunsaturated fatty acid lipoxygenase ALOX12 (Homo sapiens) (UniProt P18054)
# Test: Primary qHTS assay for inhibitors of human arachidonate 12S-lipoxygenase (ALOX12): Round 2
# Details: purified 12hLO, xylenol orange hydroperoxide absorbance; activity change, negative = inhibition: at 108 µM (top of the series) unless noted
# How it was run: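 Hydroperoxide product was detected by ferrous iron/xylenol orange as the 573 to 405 nm absorbance ratio. Arachidonic acid at 40 uM (final) was turned over for 30 min at room temperature by 150 nM human 12hLO, pH 7.0 Hepes buffer, after 15 min compound preincubation.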
# % is scaled to controls: 0 for no effect and ±100 for the full control effect; potency is read from the fitted curve at half-maximal effect.
Structure (SMILES),Potency,"activity change, negative = inhibition"
CC(C)(C)c1ccc(C(=O)Nc2c(NCc3ccccc3)c3ccccc3oc2=O)cc1,"inconclusive: 70.8 µM [inhibitor, partial curve, poor fit]",
COc1cccc2sc(N(CCN(C)C)C(=O)c3ccc4c(c3)CCCC4)nc12,"inconclusive: 89.1 µM [inhibitor, partial curve, poor fit]",
CCCCc1cc(=O)oc2cc(C)c(CN3CCCC3)c(O)c12,"inconclusive: 3.16 µM [inhibitor, full curve, poor fit]",
CS(=O)(=O)N(CC(=O)N1CCN(Cc2ccc3c(c2)OCO3)CC1)Cc1ccc(Cl)cc1,,inactive: -4.24%
Fc1cc(Br)ccc1NC(=S)NCCc1ccccc1,"inconclusive: 44.7 µM [inhibitor, partial curve, poor fit]",
CN(CC(=O)Nc1ccc(F)cc1)CC(=O)NC1CCCCC1,"inconclusive: 39.8 µM [inhibitor, partial curve, poor fit]",
O=C(Nc1nn[nH]n1)c1cccc(S(=O)(=O)N2CCOCC2)c1,,inactive: -17.5%
CCCN1CCN(C(=O)Cn2cnc3ccc(S(=O)(=O)N4CCC(C)CC4)cc3c2=O)CC1,"inconclusive: 31.6 µM [inhibitor, full curve, poor fit]",
CC(=O)c1ccc(NC(=O)C2=CC(c3ccc4c(c3)OCO4)=NS(=O)(=O)N2C)cc1,"inconclusive: 20 µM [inhibitor, partial curve]",
Cn1c(-c2ccccc2O)cc2ccccc21,"inconclusive: 112 µM [inhibitor, single point]",
CCCCCCC12C(=Cc3cc4c(cc31)OCCO4)c1cc(OC)c(OC)cc1C(CC(=O)O)N2C(=O)OC (stereo not given),active: 39.8 µM,
CCOC(=O)c1c(-c2ccc(C)o2)csc1NC(=O)CSc1nnc(C)s1,,inactive: -10.5%
CC(=O)c1cccc(Nc2nc(-c3ccc(Cl)cc3)nc3ccccc23)c1,"inconclusive: 44.7 µM [inhibitor, partial curve, poor fit]",
CCOc1cc(C(C(=O)NCC2CCCO2)N(C(=O)Cn2nnc3ccccc32)c2ccc(OC)c(OC)c2)ccc1O (stereo not given),,inactive: -1.68%
Cc1cccc(NC(=S)Nc2ccc(Cl)c(Cl)c2)c1,"inconclusive: 44.7 µM [inhibitor, partial curve, poor fit]",
CCOc1ccc(OCc2cccc(C(=O)N3CCCC3)c2)cc1,"inconclusive: 22.4 µM [inhibitor, partial curve, poor fit]",
S=C(c1ccc(-c2ccccc2)o1)N1CCCCC1,"inconclusive: 44.7 µM [inhibitor, partial curve, poor fit]",
COc1ccc(-c2cc(C)nc3c(-c4ccc(OC)c(OC)c4)c(C)nn23)cc1,,inactive: -17%
O=C(COc1ccccc1[N+](=O)[O-])OCC(=O)c1ccc(Br)s1,active: 44.7 µM,
N#Cc1ccc(Nc2nc(-c3ccccc3)c(C(=O)c3ccccc3)s2)cc1,"inconclusive: 12.6 µM [inhibitor, full curve]",
O=C(N[C@@H]1CN(Cc2cccc(OC(F)(F)F)c2)CC[C@@H]1CO)c1ccccc1,"inconclusive: 70.8 µM [inhibitor, partial curve, poor fit]",
COc1ccc(CCN2C(=O)CSCC2(C)C(=O)Nc2ccc3c(c2)OCCO3)cc1OC (stereo not given),"inconclusive: 44.7 µM [inhibitor, partial curve, poor fit]",

Structure (SMILES),Potency,"activity change, negative = inhibition"
Cc1cccc(NC(=S)NCCc2ccccc2)c1C,"inconclusive: 44.7 µM [inhibitor, partial curve, poor fit]",
O=S(=O)(c1ccc(F)cc1)N1CCN(S(=O)(=O)c2cc(F)ccc2F)CC1,"inconclusive: 0.316 µM [inhibitor, full curve, poor fit]",
CCN(CC)c1ccc(N=Cc2ccc([N+](=O)[O-])o2)cc1,"inconclusive: 44.7 µM [inhibitor, partial curve, poor fit]",
CC(=O)Nc1cccc(-c2cn(C)c(=O)n3cc(COc4ccc(Cl)cc4)nc23)c1,"inconclusive: 7.08 µM [inhibitor, full curve, poor fit]",
COc1cc(/C=C/C(=O)c2ccc(C(=O)O)s2)cc(OC)c1O,"inconclusive: 4.47 µM [inhibitor, full curve, poor fit]",
CCc1nc(N2CCN(C(=O)c3ccco3)CC2)c2oc3ccccc3c2n1,"inconclusive: 31.6 µM [inhibitor, partial curve, poor fit]",
COc1cc(OC)cc(C(=O)Nc2nc3ccccc3[nH]2)c1,,inactive: 0%
Cc1ccc(-c2nc(CS(=O)Cc3ccccc3)co2)cc1 (stereo not given),"inconclusive: 35.5 µM [inhibitor, partial curve, poor fit]",
Cc1cccc(-c2nnn3c2nc(NCCc2ccc(S(N)(=O)=O)cc2)c2cc(Cl)ccc23)c1,,inactive: -34.9%
Cc1ccc(/C=N/N=C(c2ccccc2)c2ccccc2)o1,"inconclusive: 50.1 µM [inhibitor, partial curve, poor fit]",
O=C(/C=C/c1ccco1)NCC(=O)N/N=C/c1ccc([N+](=O)[O-])cc1,,inactive: -26.9%
Nc1nccnc1C(=O)NCc1ccc(NC(=O)c2ccco2)cc1,"inconclusive: 31.6 µM [inhibitor, partial curve, poor fit]",
CCC(C)(C)C1CCc2c(sc(NC(=O)C3CC3c3ccccc3)c2C#N)C1 (stereo not given),,inactive: -29.9%
CCCCCn1c(=O)[nH]c2cc(C(=O)N3CCN(c4cccc(C)c4)C(C)C3)ccc2c1=O (stereo not given),,inactive: 0.17%
O=S1(=O)CC(N2CCCCC2)CN1Cc1ccc(F)cc1 (stereo not given),"inconclusive: 70.8 µM [inhibitor, single point]",
CCCNC(=O)c1cccc(CNCc2ccsc2)c1,"inconclusive: 31.6 µM [inhibitor, partial curve, poor fit]",
COC(=O)CS(=O)(=O)c1ccc(C)cc1,"inconclusive: 50.1 µM [inhibitor, partial curve, poor fit]",
COc1ncc2nc(-c3cn(C)c4ccccc34)c(=O)n(Cc3ccc(F)cc3)c2n1,,inactive: 0%
Cc1sc2nc3ccc(N4CCCC4)nn3c(=O)c2c1C,,inactive: -14.8%
O=C(N/N=C/c1ccccc1C(F)(F)F)C1CC1,"inconclusive: 126 µM [inhibitor, partial curve, poor fit]",
CCCCSc1nc(C)[nH]c1[N+](=O)[O-],,inactive: -11.8%
CCC(C)(C)n1nnnc1C(c1cc2ccc(OC)cc2[nH]c1=O)N1CCCCC1 (stereo not given),"inconclusive: 44.7 µM [inhibitor, partial curve, poor fit]",

# Part of the list above, set out differently:
Structure (SMILES)	Potency	activity change, negative = inhibition
O=S1(=O)CC(N2CCCCC2)CN1Cc1ccc(F)cc1 (stereo not given)	inconclusive: 70.8 µM [inhibitor, single point]	
CCCNC(=O)c1cccc(CNCc2ccsc2)c1	inconclusive: 31.6 µM [inhibitor, partial curve, poor fit]	
COC(=O)CS(=O)(=O)c1ccc(C)cc1	inconclusive: 50.1 µM [inhibitor, partial curve, poor fit]	

# The list goes on.

Structure (SMILES),Potency,"activity change, negative = inhibition"
CC(C)(C)CC(=O)NC[C@H]1OC[C@@H](N(Cc2ccccc2)Cc2ccccc2)[C@@H]1O,,inactive: 2.78% [at 176 µM]
COc1ccc(-c2cnc[nH]2)cc1,"inconclusive: 100 µM [inhibitor, single point]",
Cc1cc(C)c(CNC(=O)c2nc(-c3ccc(CN(C)C)cc3)cc3c2ccn3C(C)C)c(=O)[nH]1,,inactive: 20%
CCOc1ccc2[nH]c(=O)c(CN(CCN3CCCC3)C(=S)Nc3ccccc3OC)cc2c1,"inconclusive: 39.8 µM [inhibitor, partial curve, poor fit]",
CC(C)C1CC(C(=O)Nc2ccccc2)C(=O)O1 (stereo not given),"inconclusive: 141 µM [inhibitor, single point]",
CN1CCN(c2ncncc2-c2ccccc2Cl)CC1,active: 39.8 µM,
COc1ccc(NC(=O)[C@@H]2C[C@@H](c3cccc(C(F)(F)F)c3)N(C)C2)cc1OC,"inconclusive: 7.94 µM [inhibitor, full curve, poor fit]",
O=C(O)c1ccccc1-c1ccccc1C(=O)NNc1ccccc1,"inconclusive: 20 µM [inhibitor, partial curve, poor fit]",
O=C1Nc2ccccc2CN(CC2CC2)C12CCNCC2,"inconclusive: 3.59 µM [inhibitor, single point]",
COC(=O)Cc1ccc(NC(=S)NCc2ccccc2OC)cc1,"inconclusive: 22.4 µM [inhibitor, partial curve, poor fit]",
CCCNC(=O)CSc1nc2ccsc2c(=O)n1CCC(C)C,"inconclusive: 100 µM [inhibitor, single point]",
CCn1c(C)nnc1SCC(=O)Nc1ccccc1OC,"inconclusive: 100 µM [inhibitor, single point]",
COc1ccc(C(=O)N[C@@H]2CCC[C@@H]2C(=O)N2CCN(c3ccc(Cl)cc3)CC2)cn1,"inconclusive: 17.8 µM [inhibitor, full curve, poor fit]",
O=C(NC1CCCCCC1)c1nc(-c2ccccc2)n(-c2ccccc2)n1,"inconclusive: 50.1 µM [inhibitor, single point]",
Cc1ncsc1CCOC(=O)c1ccc(Cl)cc1,,inactive: -2.73%
O=S1(=O)CC(N2CCN(CCO)CC2)CN1Cc1ccc(F)cc1 (stereo not given),"inconclusive: 141 µM [inhibitor, single point]",
Cc1[nH]c(=O)[nH]c(=O)c1CC(=O)N1C[C@@H](C(=O)O)[C@H](c2ccccc2)C1,"inconclusive: 50.1 µM [inhibitor, partial curve, poor fit]",
CCn1c(SCC(=O)N/N=C/C=C\c2ccccc2[N+](=O)[O-])nnc1-c1ccccc1,,inactive: -10.3%
S=c1cnc2ccccc2[nH]1,"inconclusive: 25.1 µM [inhibitor, partial curve, poor fit]",
Cc1oc(-c2ccccc2)nc1CS(=O)CC(=O)N1CCc2ccccc2C1 (stereo not given),"inconclusive: 112 µM [inhibitor, single point]",
COc1ccccc1CN1COc2ccc3c(oc(=O)c4ccccc43)c2C1,"inconclusive: 31.6 µM [inhibitor, partial curve, poor fit]",
